Data as given in PubChem BioAssay AID1224828 (NIAID, 2016).
Shown is an unselected part of about 17,000 reagents tested. 762 of all reagents (4.5%) count as active. 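Active calls include both raised and lowered p65 entry, mostly lowered; wells with fewer than 50 cells lack a z-score.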 The raw values are shown without normalisation. A number with no mark means an inactive call. Reagents against one gene are numbered here. A reagent listed more than once was tested more than once; the source does not tell the runs apart.

Screen: 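Regulators linking TLR4 signalling to p65 nuclear translocation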 (primary screen)
Cell system: mouse RAW264.7 G9 macrophage reporter cells (GFP-p65, Tnf promoter-mCherry)
Knock-down reagent: siRNA pool against mouse genes, 100 nM
Timing: 2 days siRNA transfection, then 40 min LPS before fixation
Treatment: LPS (Salmonella minnesota R595) at 10 ng/ml
Measurement: 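Microscopy ratio of nuclear to perinuclear-ring GFP-p65 signal, scaled to the plate median; gene score is the average of two replicate robust z-scores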
Scale: p65 translocation robust z-score: higher = more nuclear NF-kappaB p65 after LPS than the plate median; nuclear/cytoplasmic p65 ratio: higher = more nuclear NF-kappaB p65
Rule for the call: 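Called active when z exceeds 3.3 or falls under -1.56 (median of Tlr4 controls), giving activity score of at least 50; no calls for control wells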
Calls: active = hit (p65 shift raised or lowered); inactive = no clear change

| gene | reagent | p65 translocation robust z-score | nuclear/cytoplasmic p65 ratio, rep 1 | nuclear/cytoplasmic p65 ratio, rep 2 | low cell count flag |
| --- | --- | --- | --- | --- | --- |
| Det1 (GeneID 76375) | 1 | – | 1.39 | 1.35 | fewer than 50 cells per well; well left out of scoring |
| Galnt3 (GeneID 14425) | 1 | – | 1.63 | 1.29 | fewer than 50 cells per well; well left out of scoring |
| Mtmr11 (GeneID 194126) | 1 | – | 1.61 | 1.4 | fewer than 50 cells per well; well left out of scoring |
| Chst10 (GeneID 98388) | 1 | 0.11 | 1.61 | 1.8 | enough cells to score |
| Pyroxd1 (GeneID 232491) | 1 | -1.99 (active) | 1.38 | 1.4 | enough cells to score |
| Pld5 (GeneID 319455) | 1 | – | 1.47 | 1.81 | fewer than 50 cells per well; well left out of scoring |
| Or8u3 (GeneID 259015) | 1 | -0.29 | 1.66 | 1.5 | enough cells to score |
| Vmn1r74 (GeneID 171240) | 1 | – | 1.46 | 1.19 | fewer than 50 cells per well; well left out of scoring |
| Appl1 (GeneID 72993) | 1 | – | 1.83 | 1.35 | fewer than 50 cells per well; well left out of scoring |
| Appl1 (GeneID 72993) | 1 | – | 1.23 | 1.13 | fewer than 50 cells per well; well left out of scoring |
| Slc5a8 (GeneID 216225) | 1 | 1.98 | 1.55 | 1.58 | enough cells to score |
| Ntrk3 (GeneID 18213) | 1 | 0.39 | – | 1.43 | enough cells to score |
| Apom (GeneID 55938) | 1 | -0.58 | 1.54 | 1.53 | enough cells to score |
| Mpp3 (GeneID 13384) | 1 | – | 1.65 | 1.46 | fewer than 50 cells per well; well left out of scoring |
| Col14a1 (GeneID 12818) | 1 | 0.23 | 1.52 | 1.38 | enough cells to score |
| Psma3 (GeneID 19167) | 1 | -1.3 | 1.21 | 1.18 | enough cells to score |
| Or10ak7 (GeneID 258394) | 1 | 0.78 | 1.73 | 1.53 | enough cells to score |
| Or10ak7 (GeneID 258394) | 2 | 0.36 | 1.6 | 1.53 | enough cells to score |
| D330050P16RIK | 1 | 0.18 | 1.69 | 1.48 | enough cells to score |
| Prap1 (GeneID 22264) | 1 | – | 1.13 | 1.06 | fewer than 50 cells per well; well left out of scoring |
| Gpatch1 (GeneID 67471) | 1 | – | 1.65 | 1.74 | fewer than 50 cells per well; well left out of scoring |
| Aldh5a1 (GeneID 214579) | 1 | 1.97 | 1.81 | 1.55 | enough cells to score |
| Magi2 (GeneID 50791) | 1 | -0.42 | 1.55 | 1.56 | enough cells to score |
| Or10al7 (GeneID 258324) | 1 | – | 1.51 | 1.01 | fewer than 50 cells per well; well left out of scoring |
